# “And” between values parts separate entries of the source, which are not always exact repeats. Equal entries are not always repeated. Structures can show the parent of a compound that is named as a salt. ± gives the standard deviation of the averaged measurements. The list shows a part of the results. Part of the spread comes from offsets between plates or batches.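 Culture-activated primary human stellate myofibroblasts, where regained lipid droplets signal inactivation. Value: share of Hoechst-counted cells above a per-plate Bodipy cutoff, in duplicate wells, with DMSO negative and nortriptyline positive controls on each plate. Hits: a control-normalized score above the plate's top-tenth-percentile nortriptyline wells, or one of a plate's three best wells. Final well concentrations are not given.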
# System: primary human hepatic stellate cells (donor 1)
# Experiment: percent Bodipy-positive cells; higher = more lipid droplet accumulation
# Conditions: 48 h
# [1] = library stock concentration: 10 mM
# [2] = library stock concentration: 3.33 mM
# [3] = library stock concentration: 13.2 mM
# [4] = library stock concentration: 80 uM
# [5] = library stock concentration: 400 uM
# [6] = library stock concentration: 2 mM
# [7] = library stock concentration: 1 mM
compound,measurement,setting,value
O=C1N(c2ccccc2)c2ccccc2C1(Cc1ccncc1)Cc1ccncc1 [Linopirdine dihydrochloride],percent Bodipy-positive cells,[1],6.03 ± 0.73%
O=C1N(c2ccccc2)c2ccccc2C1(Cc1ccncc1)Cc1ccncc1 [Linopirdine],percent Bodipy-positive cells,[1],37.8 ± 1.8%
O=C1N(c2ccccc2)c2ccccc2C1(Cc1ccncc1)Cc1ccncc1,percent Bodipy-positive cells,[1],10.6 ± 4.5%
[I-].[K+] [Potassium Iodide],percent Bodipy-positive cells,[2],8.62 ± 3.8%
same,percent Bodipy-positive cells,[1],17.9 ± 2.8%
CN(C)CCCOc1nn(Cc2ccccc2)c2ccccc12.Cl [Benzydamine HCl],percent Bodipy-positive cells,[1],94.4 ± 2.6%
c1ccc2[nH]cnc2c1 [DRB (Benzimidazole)],percent Bodipy-positive cells,library stock concentration: 15.7 mM,30.1 ± 9.4%
Cc1cc(-n2c(=O)[nH]c(=O)n(C)c2=O)ccc1Oc1ccc(SC(F)(F)F)cc1 [Toltrazuril],percent Bodipy-positive cells,[2],8.05 ± 1.8%
same,percent Bodipy-positive cells,library stock concentration: 4.7 mM,9.52 ± 2.6%
same,percent Bodipy-positive cells,[1],42.8 ± 32%
N#CCNC(=O)c1ccc(-c2ccnc(Nc3ccc(N4CCOCC4)cc3)n2)cc1,percent Bodipy-positive cells,[2],91.6 ± 2.1%
same,percent Bodipy-positive cells,[1],99.68 ± 0.46%
"CCCn1c(=O)c2[nH]c(-c3ccc(S(=O)(=O)O)cc3)nc2n(CCC)c1=O [1,3-Dipropyl-8-p-sulfophenylxanthine]",percent Bodipy-positive cells,[1],32.4 ± 1.6%
Cc1ccccc1N1C(=O)c2cc(S(N)(=O)=O)c(Cl)cc2NC1C (centres undefined) [Metolazone],percent Bodipy-positive cells,,16 ± 1%
same,percent Bodipy-positive cells,[2],8.16 ± 1.4%
OCCOCCN1CCN(C(c2ccccc2)c2ccc(Cl)cc2)CC1 (centres undefined) [Hydroxyzine 2HCl],percent Bodipy-positive cells,[2],25.3 ± 2%
same,percent Bodipy-positive cells,[1],73.8 ± 3.5%
OCCOCCN1CCN(C(c2ccccc2)c2ccc(Cl)cc2)CC1 (centres undefined) [Hydroxyzine pamoate],percent Bodipy-positive cells,library stock concentration: 2.6 mM,16.3 ± 8.7%
same,percent Bodipy-positive cells,[1],48.8 ± 12%
OCCOCCN1CCN(C(c2ccccc2)c2ccc(Cl)cc2)CC1 (centres undefined) [Hydroxyzine dihydrochloride],percent Bodipy-positive cells,,53.9 ± 0.54%
COc1ccc(CNC(=O)Nc2ncc([N+](=O)[O-])s2)cc1,percent Bodipy-positive cells,[2],42.7 ± 12%
COc1ccc(CNC(=O)Nc2ncc([N+](=O)[O-])s2)cc1 [GSK-3b Inhibitor VIII],percent Bodipy-positive cells,[2],17.4 ± 2.6%
Cn1c2ccccc2c2c3c(c4c5ccccc5n(CCC#N)c4c21)CNC3=O,percent Bodipy-positive cells,[2],9.57 ± 0.43%
same,percent Bodipy-positive cells,[3],41.6 ± 6.1%
O=C(O)c1ccc2c3c1cccc3c(=O)n1c3ccccc3nc21,percent Bodipy-positive cells,[2],9.14 ± 1.9%
C=CC1=C(C(=O)O)N2C(=O)[C@@H](NC(=O)/C(=N\OCC(=O)O)c3csc(N)n3)[C@H]2SC1,percent Bodipy-positive cells,[1],11.5 ± 4.2%
C=CC1=C(C(=O)O)N2C(=O)[C@@H](NC(=O)/C(=N\OCC(=O)O)c3csc(N)n3)[C@H]2SC1 [Cefixime],percent Bodipy-positive cells,,27.3 ± 3.4%
COc1ccc(NS(=O)(=O)c2sc3ccc(Cl)cc3c2C)cc1N1CCNCC1,percent Bodipy-positive cells,[1],96.3 ± 2%
O=C(NS(=O)(=O)c1ccc(Br)s1)c1ccc(Cl)cc1Cl [Tasisulam],percent Bodipy-positive cells,[2],27.3 ± 1.1%
same,percent Bodipy-positive cells,[1],29.3 ± 1%
O=C1NCN(c2ccccc2)C12CCN(CCCC(c1ccc(F)cc1)c1ccc(F)cc1)CC2 [Fluspirilene],percent Bodipy-positive cells,[1],97.47 ± 0.8%
Nc1nc(SCc2ccc([N+](=O)[O-])cc2)c2ncn([C@@H]3O[C@H](CO)[C@H](O)C3O)c2n1 (stereo partly drawn) [S-(4-Nitrobenzyl)-6-thioguanosine],percent Bodipy-positive cells,[1],65.1 ± 2.6%
O=S(=O)(O)CCCS(=O)(=O)O,percent Bodipy-positive cells,[1],41.2 ± 9.8%
COc1cc(OC)c(C(=O)CCCCN2CCC3(CC2)NC(=O)NC3=O)cc1NS(=O)(=O)c1ccc(C(F)(F)F)cc1.Cl,percent Bodipy-positive cells,[1],52.9 ± 2.5%
NC(=S)N/N=C/c1ncccc1N [Triapine],percent Bodipy-positive cells,[2],41.5 ± 2.4%
same,percent Bodipy-positive cells,[1],38.6 ± 1.3%
Nc1cccc2c1CN(C1CCC(=O)NC1=O)C2=O (centres undefined) [Lenalidomide (CC-5013)],percent Bodipy-positive cells,[2],7.82 ± 0.59%
same,percent Bodipy-positive cells,[1],13.5 ± 3.9%
Nc1cccc2c1CN(C1CCC(=O)NC1=O)C2=O (centres undefined) [Lenalidomide],percent Bodipy-positive cells,[4],12.2 ± 1.1%
same,percent Bodipy-positive cells,[5],7.43 ± 2.1%
same,percent Bodipy-positive cells,[6],12.7 ± 4.3%
same,percent Bodipy-positive cells,[1],8.71 ± 3.9%
O=C1N[C@@H]2[C@@H](O)[C@@H](O)[C@H](O)[C@@H](CO)N2C1=O [Kifunensine],percent Bodipy-positive cells,[7],20.5 ± 8.2%
O=C(O)CCC/C=C\C[C@H]1[C@@H](O)CC(=O)[C@@H]1/C=C/[C@@H](O)CCc1ccccc1 [17-phenyl trinor Prostaglandin D2],percent Bodipy-positive cells,[7],13.1 ± 3.4%
CC(=O)Oc1c(C)c(C)c2c(c1C)CCC(C)(CCCC(C)CCCC(C)CCCC(C)C)O2 (stereo not drawn) [Alpha-tochopheryl acetate],percent Bodipy-positive cells,[1],45.4 ± 6.5%
CC(=O)Nc1ccc(O)cc1 [Acetaminophen],percent Bodipy-positive cells,,10.7 ± 1.4%
same,percent Bodipy-positive cells,[1],9.96% and 8.19%
same,percent Bodipy-positive cells,[3],3.13 ± 1.8%
CCCCC[C@H](O)/C=C/[C@H]1C(=O)C[C@H](O)[C@@H]1C/C=C\CCCC(=O)O [Prostaglandin  D2],percent Bodipy-positive cells,[7],14.4 ± 12%
CCCCC[C@H](O)/C=C/[C@H]1C(=O)C[C@H](O)[C@@H]1C/C=C\CCCC(=O)O [Prostaglandin D2],percent Bodipy-positive cells,[7],9.69 ± 1.9%
CC(C)CCC[C@@H](C)CCC[C@@H](C)CCCC(C)CC(=O)O (some centres undefined) [Phytanic Acid],percent Bodipy-positive cells,[7],14.6 ± 4%
CCCCC(CC)CN=C(N)N=C(N)NCCCCCCNC(N)=NC(N)=NCC(CC)CCCC (centres undefined) [Alexidine hydrochloride],percent Bodipy-positive cells,[1],93.3 ± 6%
O=C(Nc1ccc(-c2ccnc(Nc3ccc(N4CCOCC4)cc3)n2)cc1)C1CCCN1 (centres undefined),percent Bodipy-positive cells,[4],6.11 ± 3.9%
same,percent Bodipy-positive cells,[5],4.71 ± 2%
same,percent Bodipy-positive cells,[6],10.5 ± 1.1%
same,percent Bodipy-positive cells,[2],23.3 ± 9.7%
same,percent Bodipy-positive cells,[1],78.8 ± 3.9%
COC(=O)C(C)c1ccc(C(=O)c2cccs2)cc1 (centres undefined) [Suprofen methyl ester],percent Bodipy-positive cells,[1],31.6 ± 11%
COc1ccc2[nH]c([S+]([O-])Cc3ncc(C)c(OC)c3C)nc2c1 (centres undefined) [Omeprazole],percent Bodipy-positive cells,,27.8 ± 3.6%
same,percent Bodipy-positive cells,[2],6.43 ± 0.91%
same,percent Bodipy-positive cells,library stock concentration: 5.8 mM,5.89 ± 2.9%
same,percent Bodipy-positive cells,[1],19.5% and 8.94%
COc1ccc2[nH]c([S+]([O-])Cc3ncc(C)c(OC)c3C)nc2c1 (centres undefined),percent Bodipy-positive cells,[1],8.44% and 3.6%
CN(C)[C@@H]1C(O)=C(C(N)=O)C(=O)[C@@]2(O)C(O)=C3C(=O)c4c(O)ccc(Cl)c4[C@@](C)(O)[C@H]3C[C@@H]12 [Chlortetracycline hydrochloride],percent Bodipy-positive cells,,24.6 ± 4.1%
same,percent Bodipy-positive cells,[1],10.3 ± 3.6%
O=C1OC2(c3ccc(O)cc3Oc3cc(O)ccc32)c2ccccc21 [Fluorescein],percent Bodipy-positive cells,library stock concentration: 6 mM,0%
O=Cc1cccc2[nH]ccc12 [4-formyl Indole],percent Bodipy-positive cells,[7],13.9 ± 8.8%
CC(=O)N(CC(C)C(=O)O)c1c(I)cc(I)c(N)c1I (centres undefined) [Iocetamic acid],percent Bodipy-positive cells,,5.94 ± 1.6%
CC(=O)OCC1=C(C(=O)O)N2C(=O)[C@@H](NC(=O)CSc3ccncc3)[C@H]2SC1 [Cephapirin sodium],percent Bodipy-positive cells,library stock concentration: 4.5 mM,2.66 ± 0.39%
same,percent Bodipy-positive cells,[1],19.6 ± 4.2%
CCCCCCCCc1ccc(CCC(N)(CO)CO)cc1,percent Bodipy-positive cells,[7],51.2 ± 7%
CCCCCCCCc1ccc(CCC(N)(CO)CO)cc1 [Fingolimod (FTY720) HCl],percent Bodipy-positive cells,[1],100%
CCCCCCCC/C=C\CCCCCCCC(=O)NCCc1ccc(O)c(O)c1 [N-Oleoyldopamine],percent Bodipy-positive cells,[1],17.9 ± 2%
CCCCCCCC/C=C\CCCCCCCC(=O)NCCc1ccc(O)c(O)c1 [N-Oleoyl Dopamine],percent Bodipy-positive cells,[7],8.71 ± 1.3%

# 5 entries from above in a different format.
compound	measurement	setting	value
COc1cc(OC)c(C(=O)CCCCN2CCC3(CC2)NC(=O)NC3=O)cc1NS(=O)(=O)c1ccc(C(F)(F)F)cc1.Cl	percent Bodipy-positive cells	[1]	52.9 ± 2.5%
NC(=S)N/N=C/c1ncccc1N [Triapine]	percent Bodipy-positive cells	[2]	41.5 ± 2.4%
same	percent Bodipy-positive cells	[1]	38.6 ± 1.3%
Nc1cccc2c1CN(C1CCC(=O)NC1=O)C2=O (centres undefined) [Lenalidomide (CC-5013)]	percent Bodipy-positive cells	[2]	7.82 ± 0.59%
same	percent Bodipy-positive cells	[1]	13.5 ± 3.9%
